Chains of the proteins cited; added tags and fusions are not shown. Lines headed by an entry give the natural chain unless they say otherwise; changes in a name come on top.
UniProt Q99720, whole entry, looked up: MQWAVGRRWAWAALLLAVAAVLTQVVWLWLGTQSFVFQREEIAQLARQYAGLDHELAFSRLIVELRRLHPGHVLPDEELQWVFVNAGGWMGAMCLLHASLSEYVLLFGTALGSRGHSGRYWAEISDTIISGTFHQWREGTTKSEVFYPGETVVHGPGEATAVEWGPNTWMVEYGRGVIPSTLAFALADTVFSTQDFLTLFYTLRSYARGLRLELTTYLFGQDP
UniProt Q13228: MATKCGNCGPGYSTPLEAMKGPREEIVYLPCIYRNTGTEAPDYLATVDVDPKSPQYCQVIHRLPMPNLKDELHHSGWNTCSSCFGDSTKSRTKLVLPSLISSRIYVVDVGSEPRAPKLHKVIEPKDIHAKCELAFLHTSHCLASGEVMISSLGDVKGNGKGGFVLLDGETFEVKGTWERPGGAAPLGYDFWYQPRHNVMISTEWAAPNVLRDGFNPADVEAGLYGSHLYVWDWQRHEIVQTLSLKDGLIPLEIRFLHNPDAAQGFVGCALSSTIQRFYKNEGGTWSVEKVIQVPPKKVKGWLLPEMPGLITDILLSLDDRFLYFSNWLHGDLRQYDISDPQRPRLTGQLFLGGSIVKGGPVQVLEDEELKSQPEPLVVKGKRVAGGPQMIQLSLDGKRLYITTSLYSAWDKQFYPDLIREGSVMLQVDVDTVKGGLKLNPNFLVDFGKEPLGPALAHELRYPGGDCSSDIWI
UniProt Q9NXA8: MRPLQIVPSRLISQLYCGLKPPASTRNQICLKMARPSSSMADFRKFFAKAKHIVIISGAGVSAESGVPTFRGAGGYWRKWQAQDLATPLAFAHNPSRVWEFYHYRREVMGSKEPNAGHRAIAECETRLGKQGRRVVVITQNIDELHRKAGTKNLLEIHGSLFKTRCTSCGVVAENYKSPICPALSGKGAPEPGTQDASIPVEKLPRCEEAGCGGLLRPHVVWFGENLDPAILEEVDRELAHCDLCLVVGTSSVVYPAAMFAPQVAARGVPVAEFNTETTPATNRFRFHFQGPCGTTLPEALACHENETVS
UniProt Q14141: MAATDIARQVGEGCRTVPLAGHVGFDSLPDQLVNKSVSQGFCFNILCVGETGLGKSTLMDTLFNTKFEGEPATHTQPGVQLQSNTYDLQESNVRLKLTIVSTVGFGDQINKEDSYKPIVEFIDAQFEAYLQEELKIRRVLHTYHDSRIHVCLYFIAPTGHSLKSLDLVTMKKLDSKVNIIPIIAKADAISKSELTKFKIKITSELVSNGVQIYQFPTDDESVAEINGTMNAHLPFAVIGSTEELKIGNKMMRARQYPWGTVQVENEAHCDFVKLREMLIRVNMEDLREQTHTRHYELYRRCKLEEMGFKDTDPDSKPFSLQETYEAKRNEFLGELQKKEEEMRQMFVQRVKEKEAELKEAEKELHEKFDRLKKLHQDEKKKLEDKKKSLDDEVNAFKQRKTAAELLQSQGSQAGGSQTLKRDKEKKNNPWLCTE
UniProt P50452: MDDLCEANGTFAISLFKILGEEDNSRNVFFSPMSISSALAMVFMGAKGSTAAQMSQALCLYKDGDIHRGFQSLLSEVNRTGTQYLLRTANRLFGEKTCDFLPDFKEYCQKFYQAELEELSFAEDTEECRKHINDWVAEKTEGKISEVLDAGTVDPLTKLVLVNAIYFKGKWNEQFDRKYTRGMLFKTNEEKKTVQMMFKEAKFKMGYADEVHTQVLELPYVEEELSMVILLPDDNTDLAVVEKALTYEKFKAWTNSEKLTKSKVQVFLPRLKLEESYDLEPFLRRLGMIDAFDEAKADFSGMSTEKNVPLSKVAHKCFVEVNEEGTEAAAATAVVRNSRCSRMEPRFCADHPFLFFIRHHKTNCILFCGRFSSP
UniProt Q96EQ0: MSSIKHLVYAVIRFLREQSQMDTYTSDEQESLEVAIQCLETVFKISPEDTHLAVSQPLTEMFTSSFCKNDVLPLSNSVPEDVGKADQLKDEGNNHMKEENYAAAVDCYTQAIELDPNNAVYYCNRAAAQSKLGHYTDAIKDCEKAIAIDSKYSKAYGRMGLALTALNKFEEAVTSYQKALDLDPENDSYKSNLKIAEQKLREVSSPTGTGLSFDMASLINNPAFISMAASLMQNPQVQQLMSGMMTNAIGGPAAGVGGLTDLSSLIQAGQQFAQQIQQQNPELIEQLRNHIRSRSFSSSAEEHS
UniProt Q99442: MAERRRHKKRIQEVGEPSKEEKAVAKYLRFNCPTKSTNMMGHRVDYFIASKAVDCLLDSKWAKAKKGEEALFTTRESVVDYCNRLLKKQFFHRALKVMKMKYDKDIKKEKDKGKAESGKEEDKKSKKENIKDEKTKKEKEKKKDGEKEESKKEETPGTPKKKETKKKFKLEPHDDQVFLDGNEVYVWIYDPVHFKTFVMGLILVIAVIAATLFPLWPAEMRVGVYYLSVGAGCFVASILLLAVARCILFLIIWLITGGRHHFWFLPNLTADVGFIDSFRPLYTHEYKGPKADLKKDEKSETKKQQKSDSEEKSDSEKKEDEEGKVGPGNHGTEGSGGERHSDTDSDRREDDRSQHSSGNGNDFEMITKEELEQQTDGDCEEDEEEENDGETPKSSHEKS
UniProt Q9UBV2: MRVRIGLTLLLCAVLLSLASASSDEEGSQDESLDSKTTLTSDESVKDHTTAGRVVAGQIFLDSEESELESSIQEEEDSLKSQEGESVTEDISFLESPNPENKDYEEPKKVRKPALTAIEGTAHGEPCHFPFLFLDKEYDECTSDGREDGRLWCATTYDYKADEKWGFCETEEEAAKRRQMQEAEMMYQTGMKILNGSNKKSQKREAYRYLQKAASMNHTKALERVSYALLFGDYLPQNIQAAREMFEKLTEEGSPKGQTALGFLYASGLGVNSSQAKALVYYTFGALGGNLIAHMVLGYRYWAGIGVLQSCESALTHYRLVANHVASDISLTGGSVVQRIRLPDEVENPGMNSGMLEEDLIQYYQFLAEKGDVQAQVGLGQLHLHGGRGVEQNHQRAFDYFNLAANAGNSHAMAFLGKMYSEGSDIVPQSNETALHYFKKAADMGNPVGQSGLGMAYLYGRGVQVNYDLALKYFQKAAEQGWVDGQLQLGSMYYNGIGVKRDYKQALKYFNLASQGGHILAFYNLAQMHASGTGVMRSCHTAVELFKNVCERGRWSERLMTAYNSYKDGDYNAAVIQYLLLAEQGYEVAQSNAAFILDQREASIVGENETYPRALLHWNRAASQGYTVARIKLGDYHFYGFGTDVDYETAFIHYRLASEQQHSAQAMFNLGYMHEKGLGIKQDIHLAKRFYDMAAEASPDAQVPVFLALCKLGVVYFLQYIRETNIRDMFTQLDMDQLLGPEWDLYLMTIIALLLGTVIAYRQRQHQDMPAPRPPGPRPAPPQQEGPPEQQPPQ
UniProt Q9H9S3, whole entry, looked up: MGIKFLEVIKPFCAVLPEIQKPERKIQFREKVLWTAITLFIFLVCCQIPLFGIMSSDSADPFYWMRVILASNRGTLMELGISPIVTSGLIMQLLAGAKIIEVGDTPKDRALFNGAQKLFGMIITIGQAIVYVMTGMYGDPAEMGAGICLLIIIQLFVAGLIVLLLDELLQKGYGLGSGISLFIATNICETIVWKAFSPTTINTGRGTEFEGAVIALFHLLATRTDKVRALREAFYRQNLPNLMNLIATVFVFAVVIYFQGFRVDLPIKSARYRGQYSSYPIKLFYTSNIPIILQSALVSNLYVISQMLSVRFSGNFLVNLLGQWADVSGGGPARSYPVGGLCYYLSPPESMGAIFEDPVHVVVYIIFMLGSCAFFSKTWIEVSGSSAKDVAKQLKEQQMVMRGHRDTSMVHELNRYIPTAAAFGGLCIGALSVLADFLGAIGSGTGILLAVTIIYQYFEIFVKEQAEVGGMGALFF
UniProt Q86VZ5: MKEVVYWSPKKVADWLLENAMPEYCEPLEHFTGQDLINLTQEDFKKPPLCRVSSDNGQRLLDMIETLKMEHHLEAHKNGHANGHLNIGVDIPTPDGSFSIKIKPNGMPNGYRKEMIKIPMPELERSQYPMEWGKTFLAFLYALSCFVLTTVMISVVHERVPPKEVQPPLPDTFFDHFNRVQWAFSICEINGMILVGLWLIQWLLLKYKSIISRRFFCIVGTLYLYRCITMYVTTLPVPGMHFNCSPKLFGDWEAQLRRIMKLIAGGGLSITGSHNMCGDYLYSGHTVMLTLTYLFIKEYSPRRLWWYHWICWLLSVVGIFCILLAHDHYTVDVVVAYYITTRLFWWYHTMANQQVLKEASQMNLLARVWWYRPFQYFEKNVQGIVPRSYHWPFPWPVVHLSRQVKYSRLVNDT
UniProt Q16181: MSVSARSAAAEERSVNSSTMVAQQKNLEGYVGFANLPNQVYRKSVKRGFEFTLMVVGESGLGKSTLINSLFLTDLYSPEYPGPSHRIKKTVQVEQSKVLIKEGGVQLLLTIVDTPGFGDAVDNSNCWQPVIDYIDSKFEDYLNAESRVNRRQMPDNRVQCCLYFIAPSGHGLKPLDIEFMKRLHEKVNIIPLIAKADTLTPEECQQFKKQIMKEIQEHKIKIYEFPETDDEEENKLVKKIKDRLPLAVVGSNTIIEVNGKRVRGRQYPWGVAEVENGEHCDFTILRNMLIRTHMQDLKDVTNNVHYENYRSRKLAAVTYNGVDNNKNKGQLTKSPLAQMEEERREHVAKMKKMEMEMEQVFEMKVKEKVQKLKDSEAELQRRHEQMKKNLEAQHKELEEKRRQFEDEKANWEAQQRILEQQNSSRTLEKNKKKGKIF
UniProt P61619, whole entry, looked up: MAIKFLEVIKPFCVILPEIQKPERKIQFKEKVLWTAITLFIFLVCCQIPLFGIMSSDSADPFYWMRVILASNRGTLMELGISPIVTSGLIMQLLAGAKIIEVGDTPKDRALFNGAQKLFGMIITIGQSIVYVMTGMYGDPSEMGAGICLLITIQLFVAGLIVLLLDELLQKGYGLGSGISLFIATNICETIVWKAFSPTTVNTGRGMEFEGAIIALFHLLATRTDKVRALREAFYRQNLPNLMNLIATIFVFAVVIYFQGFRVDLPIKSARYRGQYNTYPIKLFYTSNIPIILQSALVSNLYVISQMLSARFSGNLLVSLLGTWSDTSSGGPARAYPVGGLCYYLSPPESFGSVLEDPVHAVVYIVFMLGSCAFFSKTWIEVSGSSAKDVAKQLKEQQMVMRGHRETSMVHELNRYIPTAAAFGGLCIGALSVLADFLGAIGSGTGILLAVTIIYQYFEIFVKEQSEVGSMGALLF
UniProt Q9UQ13: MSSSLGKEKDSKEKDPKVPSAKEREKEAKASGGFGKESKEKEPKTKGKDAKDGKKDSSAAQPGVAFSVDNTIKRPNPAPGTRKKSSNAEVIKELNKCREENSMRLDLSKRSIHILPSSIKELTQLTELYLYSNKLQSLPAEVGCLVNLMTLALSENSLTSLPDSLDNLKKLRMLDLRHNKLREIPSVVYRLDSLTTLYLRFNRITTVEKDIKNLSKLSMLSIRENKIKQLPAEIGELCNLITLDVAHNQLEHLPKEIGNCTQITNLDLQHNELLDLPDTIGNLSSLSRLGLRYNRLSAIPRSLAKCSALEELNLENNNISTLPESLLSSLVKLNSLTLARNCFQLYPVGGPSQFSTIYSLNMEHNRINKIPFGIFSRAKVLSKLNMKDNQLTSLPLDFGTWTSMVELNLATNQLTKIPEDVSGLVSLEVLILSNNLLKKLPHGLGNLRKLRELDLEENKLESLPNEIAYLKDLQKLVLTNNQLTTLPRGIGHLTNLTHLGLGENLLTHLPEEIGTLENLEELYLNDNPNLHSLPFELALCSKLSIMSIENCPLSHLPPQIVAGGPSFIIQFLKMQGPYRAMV
UniProt Q8NC51: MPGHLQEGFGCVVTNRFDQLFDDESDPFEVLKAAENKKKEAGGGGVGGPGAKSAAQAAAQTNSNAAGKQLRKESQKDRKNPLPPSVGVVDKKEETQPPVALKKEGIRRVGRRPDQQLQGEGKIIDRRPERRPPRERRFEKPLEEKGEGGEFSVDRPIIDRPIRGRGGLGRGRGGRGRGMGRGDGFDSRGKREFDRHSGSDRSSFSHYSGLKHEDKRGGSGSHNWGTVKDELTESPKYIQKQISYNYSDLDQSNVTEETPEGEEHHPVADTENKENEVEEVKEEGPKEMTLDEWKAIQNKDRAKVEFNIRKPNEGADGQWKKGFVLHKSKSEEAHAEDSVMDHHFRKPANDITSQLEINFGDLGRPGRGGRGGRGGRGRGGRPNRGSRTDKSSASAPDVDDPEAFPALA
UniProt Q9Y371: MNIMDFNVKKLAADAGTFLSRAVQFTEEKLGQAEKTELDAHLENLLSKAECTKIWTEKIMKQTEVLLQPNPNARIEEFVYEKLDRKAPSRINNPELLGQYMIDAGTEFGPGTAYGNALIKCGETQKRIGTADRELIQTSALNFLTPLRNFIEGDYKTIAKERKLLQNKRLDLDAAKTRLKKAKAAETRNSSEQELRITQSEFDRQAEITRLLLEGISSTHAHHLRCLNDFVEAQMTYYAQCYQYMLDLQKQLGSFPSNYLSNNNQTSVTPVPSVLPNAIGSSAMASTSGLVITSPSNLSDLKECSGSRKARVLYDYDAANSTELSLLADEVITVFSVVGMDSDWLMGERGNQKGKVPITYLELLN

Some of the results follow.
Each target was assayed with Nc1ccccc1NC(=O)c1ccc(CNC(=O)OCc2cccnc2)cc1 [entinostat] (assay: log2 fold change, soluble protein after heating vs DMSO (PISA); higher = thermal stabilisation; K562 cells, 10 uM, 30 min; active = over 0.2 and 3.5 SD of the protein, either way, in both replicates (recomputed)).
Method in brief: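 K562 cells at 2×10^6 cells/mL were given 10 μM compound for 30 min. Aliquots then went through 3 min of heating across 48°C-58°C, were pooled, and were extracted in PBS with 0.5% NP-40 at 4°C, and the supernatant after 21,000xg for 90 min was quantified by TMTpro 16plex LC-MS/MS with channel sums equalised. Thermal stability relative to control samples, from duplicates, is given as log2 fold change.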
With SIGMAR1 (UniProt Q99720) the log2 fold change was inactive: 0.043.
SELENBP1 isoform 4 (UniProt Q13228) was tested, and the log2 fold change was inactive: -0.006.
With SEPTIN10 isoform 2 (UniProt Q9P0V9) the log2 fold change was inactive: 0.005.
For SIRT5 (UniProt Q9NXA8), the log2 fold change was inactive: 0.002.
In the case of SEPTIN6 (UniProt Q14141), the log2 fold change is reported as inactive: 0.005.
In the case of SERPINB8 (UniProt P50452), the log2 fold change is reported as inactive: 0.033.
With SGTB (UniProt Q96EQ0) the log2 fold change was inactive: 0.005.
For SEC62 (UniProt Q99442), the log2 fold change was inactive: -0.012.
For SEL1L (UniProt Q9UBV2), the log2 fold change was inactive: -0.016.
With SEC61A2 (UniProt Q9H9S3) the log2 fold change was inactive: 0.002.
SGMS1 (UniProt Q86VZ5) was tested, and the log2 fold change was inactive: -0.061.
SFSWAP isoform 2 (UniProt Q12872) was tested, and the log2 fold change was inactive: 0.063.
For SEPTIN7 (UniProt Q16181), the log2 fold change was inactive: -0.004.
For SEC61A1 (UniProt P61619), the log2 fold change was inactive: -0.012.
For SHOC2 (UniProt Q9UQ13), the log2 fold change was inactive: 0.013.
For SERBP1 (UniProt Q8NC51), the log2 fold change was inactive: -0.053.
SH3GLB1 isoform 2 (UniProt Q9Y371) was tested, and the log2 fold change was inactive: 0.123.
